Data on eleven molecules can be found in article PMC9749938, “Alkyltriphenylphosphonium turns naphthoquinoneimidazoles into potent membrane depolarizers against mycobacteria” (RSC Medicinal Chemistry, 2022).

The series deals with Vero E6 cells. Nature of the series: Cytotoxicity on Vero E6 cells. The class given is cell-based, African green monkey. As to conditions: selectivity index, should be ≥10.
In the case of `Cc1nc2c(n1CCCCCCC[P+](C1CCCCC1)(C1CCCCC1)C1CCCCC1)C(=O)c1ccccc1C2=O.[I-]` [Compound 17], the “SI (IC50 Vero/MIC50 M. bovis BCG)” value is 18.8.

As to `Cc1nc2c(n1CCC[P+](c1ccccc1)(c1ccccc1)c1ccccc1)C(=O)c1ccccc1C2=O.[I-]` [Compound 3], the “SI (IC50 Vero/MIC50 M. bovis BCG)” value was greater than 100.

For the molecule `Cc1nc2c(n1CCCCCCC[P+](c1ccccc1)(c1ccccc1)c1ccccc1)C(=O)c1ccccc1C2=O.[I-]` [Compound 5], the “SI (IC50 Vero/MIC50 M. bovis BCG)” value is reported as 40.3.

As for `Cc1nc2c(n1CCCCC[P+](c1ccccc1)(c1ccccc1)c1ccccc1)C(=O)c1ccccc1C2=O.[I-]` [Compound 4], the “SI (IC50 Vero/MIC50 M. bovis BCG)” value is reported as greater than 166.67.

Regarding `Cc1nc2ccccc2n1CCCCCCCCCCC[P+](c1ccccc1)(c1ccccc1)c1ccccc1.[I-]` [Compound 11], the “SI (IC50 Vero/MIC50 M. bovis BCG)” value is 12.78.

Regarding `Cc1nc2c(n1CCCCCCCCCCC[P+](c1ccccc1)(c1ccccc1)c1ccccc1)C(=O)c1cccnc1C2=O.[I-]` [Compound 15], the “SI (IC50 Vero/MIC50 M. bovis BCG)” value stood at 9.0.

As for `Cc1cc(=O)n(CCCCCCCCCCC[P+](c2ccccc2)(c2ccccc2)c2ccccc2)c2c1C(=O)c1ccccc1C2=O.[I-]` [Compound 13], the “SI (IC50 Vero/MIC50 M. bovis BCG)” value is 0.6.

For the molecule `Cc1nc2ccccc2n1CCCCCCC[P+](c1ccccc1)(c1ccccc1)c1ccccc1.[I-]` [Compound 10], the “SI (IC50 Vero/MIC50 M. bovis BCG)” value stood at 22.7.

`Cc1cc(=O)n(CCCCCCC[P+](c2ccccc2)(c2ccccc2)c2ccccc2)c2c1C(=O)c1ccccc1C2=O.[I-]` [Compound 12]: the “SI (IC50 Vero/MIC50 M. bovis BCG)” value is 5.9.

`CCCCCC[P+](CCCCCC)(CCCCCC)CCCCCCCn1c(C)nc2c1C(=O)c1ccccc1C2=O.[I-]` [Compound 19]: the “SI (IC50 Vero/MIC50 M. bovis BCG)” value turned out to be 7.5.

Turning to `O=C1c2ccccc2C(=O)c2c1nc(C(F)(F)F)n2CCCCCCCCCCC[P+](c1ccccc1)(c1ccccc1)c1ccccc1.[I-]` [Compound 14], the “SI (IC50 Vero/MIC50 M. bovis BCG)” value turned out to be 3.12.
